Data as given in PubChem BioAssay AID504744 (Drosophila RNAi Screening Center, 2011)
The screen tested about 23,000 reagents; below is a random part of those that have a named target and a result. Of all reagents, 98 (0.43%) are marked active. 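Only hit calls are given; the phospho-dAkt signals, z-scores and hit direction were not deposited.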 Names joined by + are all predicted targets of the reagent.

Screen: 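Identify dsRNAs that increase or decrease phospho-dAkt after insulin treatment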 (primary screen)
Cells: Drosophila Kc167 cells
Knock-down reagent: long dsRNA against Drosophila genes, 250 ng dsRNA per well of a 384-well plate
Timing: 3 days of knock-down, then overnight serum-free starvation before stimulation
Challenge: bovine insulin at 387 nM for 10 minutes after 12 h without serum
Read-out: 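In-cell antibody fluorescence for phospho-dAkt in each well over DNA-dye signal, with log2 residuals expressed as z-scores adjusted for cell count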
Rule for the call: 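Under insulin, a gene counts as a hit if the average z-score of two replicates lies above 2.5 or below -2.5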

CG3842 (GeneID 31576) [DRSC18326]
- activity call: inactive

CG42700 (GeneID 36330) [DRSC06292]
- activity call: inactive

CG42700 (GeneID 36330) [DRSC06293]
- activity call: inactive

BuGZ (GeneID 35004) [DRSC02642]
- activity call: inactive

BuGZ (GeneID 35004) [DRSC02643]
- activity call: inactive

CG13324 (GeneID 36434) [DRSC06361]
- activity call: inactive

Tsp96F (GeneID 43127) [DRSC14147]
- activity call: inactive

CG12107 (GeneID 35712) [DRSC06102]
- activity call: inactive

CG7071 + Muted [DRSC16189]
- activity call: inactive

RpS20 (GeneID 42464) [DRSC16836]
- activity call: inactive

CG2841 (GeneID 44529) [DRSC17699]
- activity call: inactive

CG2841 (GeneID 44529) [DRSC18824]
- activity call: inactive

CG2841 (GeneID 44529) [DRSC22106]
- activity call: inactive

CG9084 (GeneID 36172) [DRSC07335]
- activity call: inactive

CG4866 (GeneID 36976) [DRSC06899]
- activity call: inactive

CG34235 + CG30058 + CG34312 [DRSC22142]
- activity call: inactive

Sik2 (GeneID 31170) [DRSC18522]
- activity call: inactive

cerv (GeneID 32492) [DRSC19681]
- activity call: inactive

CG32847 (GeneID 318245) [DRSC22901]
- activity call: inactive

CG8750 (GeneID 50285) [DRSC11037]
- activity call: inactive

AdoR (GeneID 43583) [DRSC16556]
- activity call: inactive

CG13024 (GeneID 39880) [DRSC09904]
- activity call: inactive

Copied from the entries so far (4 entries):
CG12107 (GeneID 35712) [DRSC06102]
- activity call: inactive

CG7071 + Muted [DRSC16189]
- activity call: inactive

RpS20 (GeneID 42464) [DRSC16836]
- activity call: inactive

CG2841 (GeneID 44529) [DRSC17699]
- activity call: inactive

More records:
CG10916 (GeneID 37081) [DRSC06012]
- activity call: inactive

sip3 (GeneID 43747) [DRSC15402]
- activity call: inactive

GlyT (GeneID 37772) [DRSC04512]
- activity call: inactive

IntS2 (GeneID 32745) [DRSC20094]
- activity call: inactive

CG31663 (GeneID 33363) [DRSC00078]
- activity call: inactive

CG31663 (GeneID 33363) [DRSC00389]
- activity call: inactive

CG31663 (GeneID 33363) [DRSC00390]
- activity call: inactive

CG31663 (GeneID 33363) [DRSC00393]
- activity call: inactive

CG15196 (GeneID 32084) [DRSC19643]
- activity call: inactive

trol (GeneID 45320) [DRSC17714]
- activity call: inactive

trol (GeneID 45320) [DRSC17718]
- activity call: inactive

trol (GeneID 45320) [DRSC18613]
- activity call: inactive

trol (GeneID 45320) [DRSC18814]
- activity call: inactive

CG34319 (retired record) (GeneID 5740276) [DRSC18138]
- activity call: inactive

CG31058 (retired record) (GeneID 43320) [DRSC15840]
- activity call: inactive

Nup54 (GeneID 36360) [DRSC07282]
- activity call: inactive

lic (GeneID 32257) [DRSC20347]
- activity call: inactive

CG32075 (GeneID 326192) [DRSC10622]
- activity call: inactive

Arpc2 (GeneID 35311) [DRSC02113]
- activity call: inactive

Jasper (GeneID 43576) [DRSC16352]
- activity call: inactive

brp (GeneID 35977) [DRSC06245]
- activity call: inactive

brp (GeneID 35977) [DRSC06246]
- activity call: inactive

brp (GeneID 35977) [DRSC06801]
- activity call: inactive

brp (GeneID 35977) [DRSC21893]
- activity call: inactive

CG33342 (GeneID 2768684) [DRSC13662]
- activity call: inactive

Naprt (GeneID 33626) [DRSC00630]
- activity call: inactive

Nedd4 (GeneID 39958) [DRSC11234]
- activity call: inactive

Nedd4 (GeneID 39958) [DRSC21548]
- activity call: inactive

Pa1 (GeneID 32079) [DRSC19422]
- activity call: inactive

chk (GeneID 35578) [DRSC04994]
- activity call: inactive

CG6310 (GeneID 39237) [DRSC10619]
- activity call: inactive

CG6985 (GeneID 42694) [DRSC16164]
- activity call: inactive

CG40485 (GeneID 3355165) [DRSC20624]
- activity call: inactive

TMEM216 + CG11760 [DRSC14375]
- activity call: inactive

PTPMT1 (GeneID 42807) [DRSC14235]
- activity call: inactive
